PubChem BioAssay AID504467 (National Center for Advancing Translational Sciences (NCATS), 2011)
Among all 330,000 compounds or so, about 7,700 (2.3%) were called active. The inconclusive results got no clear call from the source; some entries with a clear call stand among them for comparison. The call rests on the fitted dose curve; in most records, active means well fitted inhibition curve with a large enough effect; inconclusive means small, poorly fitted or top-dose-only effect, or effect the other way; inactive means flat fitted curve, though single readings scatter. A potency beside an inconclusive call is a rough fit, not a confirmed value.

assay: qHTS screen for small molecules that inhibit ELG1-dependent DNA repair in human embryonic kidney (HEK293T) cells expressing luciferase-tagged ELG1; conditions: HEK293T ELG1-luciferase reporter, luminescence, 16 h, DNA damage induced by 5-fluorouridine; activity change, negative = inhibition: at 46.1 µM (top of the series); further: nearly all actives have a fitted effect of over 55% in size
Method in brief: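 HEK293T cells expressing luciferase-tagged ELG1 (2,000/well) received 5-Fluorouridine plus compound or DMSO for 16 hr at 37 °C. Luciferase was read by ONE-Glo luminescence after 30 min at room temperature.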
On the % scale 0 is the no-effect control and ±100 the full control effect; potency means the concentration at half of the fitted maximal effect.

| SMILES | activity change, negative = inhibition | Potency |
| --- | --- | --- |
| S=C1CSc2ccccc2N1 | inactive: 12.7% |  |
| Cc1csc(-c2cnn(-c3ccccc3)c2NC(=O)c2cccc(F)c2)n1 |  | inconclusive: 13 µM [inhibitor, partial curve] |
| O=C(NCc1ccncc1)C(=O)NCC(c1ccco1)N1CCN(c2ccccc2)CC1 (configuration not stated) |  | active: 20.6 µM |
| COc1ccc(N=NC2=C(O)CC(C)(C)CC2=O)c(OC)c1 | inactive: 0.023% |  |
| O=C1c2ccccc2/C(=C\c2ccc3[nH]ccc3c2)N1c1ccccc1 |  | inconclusive: 10.3 µM [activator, partial curve] |
| CCCCCSc1nnc(-c2ccccc2NC(C)=O)c(=O)[nH]1 | inactive: 10.6% |  |
| COc1ccc(C(=O)NC(=S)Nc2cccnc2)cc1Cl | inactive: 23% |  |
| COc1ccc2nc(NC(=O)C3CCN(S(=O)(=O)c4cccc5nsnc45)CC3)sc2c1 |  | inconclusive: 23.1 µM [inhibitor, partial curve] |
| CCOC(=O)c1c(CN2CCN(C)CC2)n(C)c2cc(Br)c(OC)cc12 | inactive: 22.2% |  |
| CN(Cc1ccccc1)C(=O)c1ccc([N+](=O)[O-])o1 | inactive: -10.7% |  |
| COc1ccc(Cl)cc1NC(=S)NNC(=O)c1cccs1 | inactive: -1.88% |  |
| COc1cc(CN(C2CC2)S(=O)(=O)c2ccccc2Br)cc(OC)c1 |  | inconclusive: 16.4 µM [inhibitor, single point] |
| O=C(NCc1ccc(Cl)cc1)c1ccc(CS(=O)Cc2cccc(Cl)c2)o1 (configuration not stated) | inactive: -9.12% |  |
| Cc1cc(Cl)cc(C)c1OCC(=O)N1CCN(c2ncccn2)CC1 | inactive: 0.955% |  |
| Cc1ccccc1NC(=O)CNc1ccccc1N1CCCCC1 |  | inconclusive: 29.1 µM [inhibitor, single point] |
| CCC(=O)NCCc1cc2ccc(C)c(C)c2[nH]c1=O |  | inconclusive: 29.1 µM [activator, single point] |
| NC(=O)C1CCN(c2nc(-c3ccccc3)nc3c2oc2ccccc23)CC1 |  | inconclusive: 16.4 µM [inhibitor, partial curve, poor fit] |
| CCN(CC)c1ccc(C=C2C(=O)OC(C)(C(C)(C)C)OC2=O)cc1 (configuration not stated) |  | inconclusive: 20.6 µM [activator, single point] |
| CC(C)[C@@H](C(=O)NC1CCCC1)N1C(=O)N2CCc3c([nH]c4ccccc34)[C@@]2(C)C1=O |  | inconclusive: 3.26 µM [inhibitor, single point] |
| NS(=O)(=O)c1ccc(N=Nc2c(-c3ccccc3)[nH]n(-c3nc(-c4ccccc4)cs3)c2=O)cc1 |  | active: 5.17 µM |
| COC(=O)C1=C(C(=O)OC)[C@]2([C@H]3CCCCN[C@@H](Cc4ccccc4)C(=O)N3Cc3ccccc3)C=C[C@H]1O2 | inactive: -1.66% |  |
| CC/C(=N\NC(=O)c1nnn(-c2nonc2N)c1-c1cccs1)c1ccccc1 |  | inconclusive: 25.9 µM [inhibitor, partial curve, poor fit] |
| CC(C)CN(C(=O)CC1CCCC1)c1c(N)n(Cc2ccccc2)c(=O)[nH]c1=O | inactive: -4.37% |  |
| CCOc1cc(C)nc(N2CCC(C(=O)Nc3ccccc3OCC)CC2)n1 |  | inconclusive: 31.6 µM [inhibitor, single point] |

As entered above:
Entry for `COc1ccc2nc(NC(=O)C3CCN(S(=O)(=O)c4cccc5nsnc45)CC3)sc2c1` under Potency: inconclusive: 23.1 µM [inhibitor, partial curve]
Entry for `CC(C)CN(C(=O)CC1CCCC1)c1c(N)n(Cc2ccccc2)c(=O)[nH]c1=O` under activity change, negative = inhibition: inactive: -4.37%

(continued)

| SMILES | activity change, negative = inhibition | Potency |
| --- | --- | --- |
| CCCCC(=O)Nc1cccc(-c2nn3c(C)nnc3s2)c1 |  | inconclusive: 29.1 µM [inhibitor, single point] |
| OC(COC(c1ccccc1)c1ccccc1)CN1CCOCC1 (configuration not stated) | inactive: -6.16% |  |
| O=C(CCCSc1nc2ccccc2[nH]1)NC(c1ccccc1)c1ccccc1 |  | inconclusive: 25.9 µM [inhibitor, single point] |
| O=C(CS(=O)(=O)c1ccccc1)Nc1ccccn1 | inactive: 0.61% |  |
| CC(C)C1N=C2c3ccccc3N=C(SCc3cc(=O)n4cc(Cl)ccc4n3)N2C1=O (configuration not stated) | inactive: -12.5% |  |
| COCCN(C(=O)CSc1nnc(-c2ccc(C)cc2)n1N)c1c(N)n(Cc2ccccc2)c(=O)[nH]c1=O | inactive: -5.08% |  |
| CCCCn1c(N)c(N(CC(C)C)C(=O)c2ccc(-c3ccc(Cl)cc3)o2)c(=O)[nH]c1=O |  | active: 14.6 µM |
| Cc1ccc(S(=O)(=O)c2ccc(C)cc2)cc1 | inactive: 7.97% |  |
| CC(C)CC(=O)Nc1nnc(-c2ccco2)s1 |  | inconclusive: 14.6 µM [activator, partial curve] |
| c1ccc(-c2c[nH]c3[n+]2CCCCC3)cc1 | inactive: -16.1% |  |
| Cc1csc(NC(=O)CSc2nnnn2C)n1 |  | inconclusive: 18.4 µM [activator, partial curve] |
| Cc1cc(C)nc(SCC(=O)N/N=C/c2ccc3c(c2)OCO3)n1 |  | inconclusive: 20.6 µM [activator, partial curve] |
| O=C(NCc1cccnc1)c1cc(-c2ccc(Cl)cc2)oc1C(F)(F)F |  | inconclusive: 5.17 µM [inhibitor, partial curve, poor fit] |
| O=C(c1ccccc1-n1cccn1)N1CCc2c([nH]c3ccccc23)C1c1ccccn1 (configuration not stated) |  | inconclusive: 23.1 µM [activator, partial curve] |
| C=CCc1cccc2cc(C(=O)Nc3ccccc3C(=O)O)c(=O)oc12 |  | inconclusive: 13 µM [inhibitor, partial curve, poor fit] |
| Cc1ccc(-c2nc3ccccc3c(C(=O)NCc3cccs3)c2C)cc1 |  | inconclusive: 29.1 µM [inhibitor, single point] |
| COc1ccc(S(=O)(=O)Cc2ccc(C(=O)N3CCN(c4cccc(C)c4C)CC3)o2)cc1 |  | active: 16.4 µM |
| Cc1cccc(N2CCN(C(=O)c3cccc(N4C(=O)C5C6C=CC(C6)C5C4=O)c3)CC2C)c1 (configuration not stated) |  | active: 13 µM |
| Cc1ccc(CCNC(=O)c2cccc(N3CCCC3=O)c2)cc1 |  | inconclusive: 13 µM [activator, partial curve] |
| Cc1ccc(-c2csc(NC(=O)COc3ccc(N(C)S(=O)(=O)c4ccc(C)cc4)cc3)n2)cc1 |  | inconclusive: 23.1 µM [inhibitor, single point] |
| COc1ccc(C2C=C(c3ccc(F)cc3)NC(=S)N2)cc1OC (configuration not stated) |  | inconclusive: 14.6 µM [inhibitor, partial curve] |
| Cc1[nH]c2ccccc2c1/C=C(\C#N)C(=O)NC1CC1 |  | inconclusive: 20.6 µM [activator, single point] |
| CCN(CC)S(=O)(=O)c1cc(NC(=O)C2CCN(c3ncnc4sc(C)c(C)c34)CC2)ccc1Cl |  | inconclusive: 5.8 µM [inhibitor, full curve] |
| O=C(O)c1cc(S(=O)(=O)N2CCOCC2)c[nH]1 | inactive: 23.3% |  |

| SMILES | activity change, negative = inhibition | Potency |
| --- | --- | --- |
| O=C(NCCN1CCOCC1)c1cc(-c2ccc(Cl)cc2Cl)on1 |  | inconclusive: 23.1 µM [activator, partial curve] |
| N#C/C(=C\c1c(N2CCCCCC2)nc2ccccn2c1=O)C(=O)NC1CCS(=O)(=O)C1 (configuration not stated) | inactive: -26.5% |  |
| CCOc1ccc(NS(=O)(=O)c2ccc(C(=O)NCC3(N(C)C)CCCCC3)cc2)cc1 |  | inconclusive: 32.6 µM [activator, partial curve, poor fit] |
| CCC1CCCCN1Cc1c(O)ccc2c(=O)c(-c3ccccc3)coc12 (configuration not stated) |  | inconclusive: 3.98 µM [inhibitor, single point] |
| CCOCCCNc1nc(=S)[nH]c2cc(OC)c(OC)cc12 |  | inconclusive: 29.1 µM [activator, single point] |
| COCCNC(=O)Nc1ccc2nc(-c3cccs3)c(-c3cccs3)nc2c1 |  | inconclusive: 20.6 µM [inhibitor, single point] |
| CC(OC(=O)CNC(=O)c1ccc(F)cc1)C(=O)Nc1ccc(S(=O)(=O)N2CCOCC2)cc1 (configuration not stated) | inactive: -2.03% |  |
| c1ccc2c(SCc3cn4ccccc4n3)nncc2c1 |  | inconclusive: 18.3 µM [activator, single point] |
| CN(CC(=O)Nc1ccc(OC(F)(F)F)cc1)C(=O)c1ccc(N2CCCC2=O)cc1 |  | inconclusive: 14.1 µM [inhibitor, partial curve, poor fit] |
| CCOc1ccc(CCNC(=O)COC(=O)c2oc3ccccc3c2COC)cc1OCC | inactive: -27.2% |  |
| CCOc1ccc(N(C)S(=O)(=O)c2ccc3[nH]cc(C(=O)NCC(OC)OC)c(=O)c3c2)cc1 | inactive: -12.8% |  |
| Clc1cccc(-c2nn3c(-c4ccncc4)nnc3s2)c1 | inactive: 0.639% |  |
| CCN(CC)C(=O)[C@H]1C[C@H](CC(=O)NCc2ccco2)C(=O)N2CCc3c([nH]c4cc(-c5ccco5)ccc34)[C@]12C |  | active: 18.3 µM |
| CCN(CC)CC(=O)N1c2ccccc2Sc2ccccc21 | inactive: -3.13% |  |
| COc1cc(Br)c(/C=C/c2ccc3cccc(O)c3n2)cc1OC |  | inconclusive: 29.1 µM [activator, single point] |
| CCCCN(C)CCNC(=O)c1ccc(Cn2c(=S)[nH]c3ccc(Br)cc3c2=O)cc1 | inactive: 23.8% |  |
| Cc1cc(NC(=O)c2cnn3cccnc23)n(-c2ccccc2)n1 |  | inconclusive: 20.6 µM [inhibitor, partial curve] |
| O=C(CSCc1ccc(Cl)cc1)Nc1ccc(S(=O)(=O)N2CCOCC2)cc1 |  | inconclusive: 18.4 µM [inhibitor, partial curve, poor fit] |
| COCCCNC(=O)c1ccc2c(=O)n(Cc3ccccc3OC)c(=S)[nH]c2c1 | inactive: -7.27% |  |
| CCOC(=O)c1cc(-c2ccccc2)nc2c1c(C)nn2-c1ccccn1 |  | inconclusive: 25.9 µM [inhibitor, single point] |
| C=CCn1c(O)c(CN2CCOCC2)c(C)c(C#N)c1=O | inactive: -12.3% |  |
| COc1ccc(/C=N\NS(=O)(=O)c2ccc(Br)cc2)cc1COc1ccccc1[N+](=O)[O-] |  | inconclusive: 29.1 µM [inhibitor, single point] |
| OCCNc1nc(Nc2ccccc2)nc(Nc2ccccc2)n1 | inactive: 7.69% |  |
| CC(=O)O[C@@H]1C[C@H]2C(C)(C)C(=O)C=C[C@]2(C)[C@H]2CC[C@@]3(C)[C@H](c4ccoc4)OC(=O)[C@H]4O[C@]43[C@@]21C |  | inconclusive: 20.6 µM [inhibitor, single point] |

Structures listed so far with a furan ring, fused or not, in the order listed:

| SMILES | activity change, negative = inhibition | Potency |
| --- | --- | --- |
| O=C(NCc1ccncc1)C(=O)NCC(c1ccco1)N1CCN(c2ccccc2)CC1 (configuration not stated) |  | active: 20.6 µM |
| CN(Cc1ccccc1)C(=O)c1ccc([N+](=O)[O-])o1 | inactive: -10.7% |  |
| O=C(NCc1ccc(Cl)cc1)c1ccc(CS(=O)Cc2cccc(Cl)c2)o1 (configuration not stated) | inactive: -9.12% |  |
| NC(=O)C1CCN(c2nc(-c3ccccc3)nc3c2oc2ccccc23)CC1 |  | inconclusive: 16.4 µM [inhibitor, partial curve, poor fit] |
| CCCCn1c(N)c(N(CC(C)C)C(=O)c2ccc(-c3ccc(Cl)cc3)o2)c(=O)[nH]c1=O |  | active: 14.6 µM |
| CC(C)CC(=O)Nc1nnc(-c2ccco2)s1 |  | inconclusive: 14.6 µM [activator, partial curve] |
| O=C(NCc1cccnc1)c1cc(-c2ccc(Cl)cc2)oc1C(F)(F)F |  | inconclusive: 5.17 µM [inhibitor, partial curve, poor fit] |
| COc1ccc(S(=O)(=O)Cc2ccc(C(=O)N3CCN(c4cccc(C)c4C)CC3)o2)cc1 |  | active: 16.4 µM |
| CCOc1ccc(CCNC(=O)COC(=O)c2oc3ccccc3c2COC)cc1OCC | inactive: -27.2% |  |
| CCN(CC)C(=O)[C@H]1C[C@H](CC(=O)NCc2ccco2)C(=O)N2CCc3c([nH]c4cc(-c5ccco5)ccc34)[C@]12C |  | active: 18.3 µM |
| CC(=O)O[C@@H]1C[C@H]2C(C)(C)C(=O)C=C[C@]2(C)[C@H]2CC[C@@]3(C)[C@H](c4ccoc4)OC(=O)[C@H]4O[C@]43[C@@]21C |  | inconclusive: 20.6 µM [inhibitor, single point] |
